Laboratory results taken from US20100196516A1, “TREATMENT OF INFECTIONS BY CARBON MONOXIDE” (priority 2007, published 2010).
Some of these results come from one statement about several compounds together.

The chains behind the UniProt entries cited, without tags or fusion partners. Where a name states a change or a piece, a line headed by the entry shows the natural chain unless it says otherwise. Residues count along the entry.
UniProt P01966, 2-142: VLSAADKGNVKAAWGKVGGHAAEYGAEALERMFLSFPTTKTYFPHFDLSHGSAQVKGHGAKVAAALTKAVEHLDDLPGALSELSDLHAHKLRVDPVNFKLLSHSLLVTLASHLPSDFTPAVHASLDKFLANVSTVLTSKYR
UniProt P02070: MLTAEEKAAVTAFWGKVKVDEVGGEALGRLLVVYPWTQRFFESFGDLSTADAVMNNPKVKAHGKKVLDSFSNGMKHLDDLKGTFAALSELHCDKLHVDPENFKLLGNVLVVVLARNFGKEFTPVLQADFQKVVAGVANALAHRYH

Target: T1, hemoglobin (Hb) (Bos taurus, UniProt P01966+P02070)
T1 construct: purchased Sigma
Test: Transfer of CO from CORMs to Hb (carbonylation, shift of Soret band)
Assay type: biochemical, bovine

O=[C]=[Mn]([Br])(=[C]=O)(=[C]=O)(=[C]=O)=[C]=O [compound of Formula IV, bromo(pentacarbonyl)manganese]
time for carbonylation of Hb: less than 15 min
